Primary screen of a compound library

Source: ChEMBL document CHEMBL3988442, “University of Dundee, Small-Polar-MMV Screening Library” (2021).

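Whole-cell growth test on Mycobacterium tuberculosis, read after 4 days in a medium based on cholesterol and the lipid DPPC; the read-out is not stated. Concentration: 50 µM. Direction is inferred from retests: higher values go with more growth inhibition. Of about 69,000 compounds tested this way, about 370 (0.54%) reached 50% or more in at least one test.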

Values are the deposited “Percent Effect”, in %.
The controls that fix the scale are not given in the record; negative values are as filed.
This is an unselected part of the compounds tested.
Two or more numbers in one place are separate tests of the same structure; such repeats can differ widely.

| # | compound | percent effect |
|---|---|---|
| 1 | `[H][C@]12CCN(C(=O)c3ccno3)[C@@]1([H])CC(=O)N2CC1CC1` | 3.819 |
| 2 | `c1ccc2c(c1)CN(c1ncnc3sc4c(c13)CCNC4)CCO2` | 10.04 |
| 3 | `Cn1cc(N2CC3(COCCN(Cc4ccsc4)C3)OCC2=O)cn1.O=C(O)C(F)(F)F` (stereo not shown) | -30.66 |
| 4 | `CC(C)OC(=O)CNC(=O)Nc1ccc(-c2nc(C(C)C)no2)cc1` | 9.409 |
| 5 | `O=C(c1cccnc1)N1CCC2(CNS(=O)(=O)c3cnccc3O2)C1` (stereo not shown) | -0.04019 |
| 6 | `CC(=O)NCCCNC(=O)N(C)C(C)Cc1ccc(Cl)cc1` (stereo not shown) | -2.728 |
| 7 | `Cc1cc(F)ccc1-n1cc(O)c(C(=O)NCC[S+](C)[O-])n1` (stereo not shown) | -15.81 |
| 8 | `O=C1Nc2ccccc2/C1=C1\CCCN1` | -20.04 |
| 9 | `CCC(C)n1cnc(S(=O)(=O)N(C)C)c1` (stereo not shown) | -3.984 |
| 10 | `CCS(=O)(=O)CC(=O)NC(c1ccccc1)C1CCCC1` (stereo not shown) | 9.49 |
| 11 | `COc1ccc(C(=O)NC2CC2)c(OC2CCN(CC3CC3)CC2)c1` | 5.896 & 15.71 |
| 12 | `CC(C)Cc1cc(CNC(=O)c2ccccc2C2CCNC2)no1` (stereo not shown) | -11.39 |
| 13 | `[H][C@]12CC[C@]([H])(CN(S(=O)(=O)N(C)C)C1)N(C(=O)c1cnc(C)cn1)C2` | 4.509 |
| 14 | `CC(NC(=O)NCCCN(C)C)c1ccc2c(c1)CCC(=O)N2` (stereo not shown) | -1.169 |
| 15 | `Cc1ccc2nc(CN3CCN(C4CCCC4)C(=O)C3)cc(O)c2c1` | -8.973 |
| 16 | `CCC(C)(O)CNC(=O)Nc1ccc(C)cc1Br` (stereo not shown) | 19.54 |
| 17 | `Cc1nc(=O)c2ccccc2n1C1=CCN(CC(=O)NC(C)C)CC1` | 12.35 & 6.616 |
| 18 | `CCCN(CC)Cn1ncc2cn(-c3ccccc3)nc2c1=O` | -17.87 |
| 19 | `Cc1ccnc(C(NC(=O)c2ccc(O)nc2C)C2CC2)n1` (stereo not shown) | -40.61 |
| 20 | `CC[C@H](C)[C@@H](CO)NC(C)Cc1ccc(Cl)cc1` (stereo partly shown) | 5.814 |
| 21 | `CC(C(=O)O)N1CCc2onc(-c3ccc(F)c(F)c3)c2C1` (stereo not shown) | -16.54 |
| 22 | `O=C(O)C(F)(F)F.[H][C@]12CCN(C(=O)c3ccncc3F)C[C@@]1([H])OCCN(c1ncccn1)C2` | -9.282 & 16.24 |
| 23 | `CCOC(=O)N(C)C1CCN(Cc2ccsc2)CC1` | -4.915 |
| 24 | `Cc1nc2ccc(Cl)cn2c1CN1CCN(S(=O)(=O)N2CCCC2)CC1` | -0.6282 & -2.93 |
| 25 | `COc1ccccc1N1CCC(CNS(=O)(=O)c2c(C)nn(C)c2C)C1` (stereo not shown) | -3.243 |
| 26 | `CC(C)(C)[S+]([O-])CCNC(=O)c1csc(NC2CC2)n1` (stereo not shown) | -25.16 |
| 27 | `O=C(c1scc2c1OCCO2)N1CCN(Cc2cccc(F)c2)CC1` | -31.65 |
| 28 | `CCc1ccccc1NCc1nc2[nH]c(C)c(C)c(=O)n2n1` | -26.01 |
| 29 | `[H][C@@]12CCCCCN(C(C)=O)[C@@]1([H])[C@H](c1cccc(F)c1)CN2C(=O)COC` | -27.95 & -15.47 |
| 30 | `Cc1nc(CN2CCCC(N(C)Cc3nc(C)c(C)o3)C2)no1` (stereo not shown) | 16.21 |
| 31 | `Cc1cnn(CCCNCc2csc(COc3ccccc3)n2)c1` | 23.62 |
| 32 | `O=C(C1CCC1)N1CCCC1c1nnc2n1CCCCC2` (stereo not shown) | -2.586 & -20.6 |
| 33 | `Cn1cccc1C(=O)N1CCN(Cc2ccncc2)c2ncccc2C1.O=C(O)C(F)(F)F.O=C(O)C(F)(F)F` | -4.644 |
| 34 | `Cl.O=C(c1ccccc1Cl)N1CCN(CCc2ccccn2)CC1` | -10.62 |
| 35 | `CCn1ncc(Nc2[nH]cnc3nncc2-3)c1C` | -5.137 |
| 36 | `CN(Cc1noc(C2CC2)n1)C1CCN(Cc2nc(C3CC3)no2)C1` (stereo not shown) | -24.17 |
| 37 | `Cc1noc(C)c1CC(=O)NCCc1cccs1` | -7.732 |
| 38 | `[H][C@@]1([C@H](C)C(=O)O)CCc2c(C)cc(OCCC)c(C)c2C1` | -9.636 |
| 39 | `CN(C)CCNC(=O)CCC1CCN(C(=O)c2ccc(O)cn2)CC1` | -24.44 |
| 40 | `CN1CC2(CCN(C(=O)c3coc4c3C(=O)CCC4)C2)OC1=O` (stereo not shown) | 4.515 |
| 41 | `CCCc1noc(CCC(=O)N2CCCC2c2ccncc2)n1` (stereo not shown) | -10.08 |
| 42 | `[H][C@@]12COC[C@@H](C(=O)NC)[C@]1([H])CN(C(=O)c1ccc(OC)cc1)C2` | -1.157 |
| 43 | `Cc1nc(C)n(CC2CCCCN2CCCS(N)(=O)=O)n1` (stereo not shown) | -2.416 & -2.719 |
| 44 | `Cc1cnc(CN2CCC(N(C)Cc3nnc(C)n3C)C2)cn1` (stereo not shown) | 1.563 |
| 45 | `Cc1ccc(C)c(CC(=O)NC2CCC(N3C(=O)CCC3=O)CC2)c1` (stereo not shown) | 4.156 |
| 46 | `COc1ccc(Cl)cc1-n1cnc(CCNC(C)=O)c1` | -3.551 |
| 47 | `Cn1c(NC(=O)CNC(=O)C2CCCC2)nc2cc(Cl)ccc21` | 8.651 |
| 48 | `N#Cc1cccnc1NCc1cccc(C(=O)NCC2CCCCO2)c1` (stereo not shown) | 3.788 |
| 49 | `O=C1N(c2ccccc2)Cc2n[nH]c(=O)n21` | -6.805 |
| 50 | `CCc1noc(C2CC(=O)N(CCN(C)C)C2)n1` (stereo not shown) | -23.68 |
| 51 | `O=C(Nc1cc(C2CCOCC2)[nH]n1)c1cscn1` | -0.4481 |
| 52 | `CNC(=O)c1cc(NC(=O)NC(C)CCc2cccn2C)ccc1F` (stereo not shown) | -10.65 & -1.913 |
| 53 | `N#Cc1ccc(S(=O)(=O)NC(=O)COc2ccc3c(c2)CCC3)cc1` | -11.55 |
| 54 | `CC(C(=O)N1CCCN(Cc2cnn(C)c2)CC1)n1ccnc1` (stereo not shown) | -0.766 |
| 55 | `O=C(NCCC1CCCO1)c1ccccc1N1CCOCC1` (stereo not shown) | -6.505 |
| 56 | `O=C(O)C(F)(F)F.O=C(O)C(F)(F)F.[H][C@@]12CCCO[C@]1([H])[C@H](OCCCn1cccn1)CN2C1CCOCC1` | -27.76 |
| 57 | `COCCN(CC(C)C)c1cc(C)ncn1` | 7.093 |

4 of the entries, repeated:

compound	percent effect
CCOC(=O)N(C)C1CCN(Cc2ccsc2)CC1	-4.915
Cc1cnc(CN2CCC(N(C)Cc3nnc(C)n3C)C2)cn1 (stereo not shown)	1.563
COCCN(CC(C)C)c1cc(C)ncn1	7.093
CCC(C)n1cnc(S(=O)(=O)N(C)C)c1 (stereo not shown)	-3.984